PubChem BioAssay AID743121, NCATS, 2013

Aim: 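Knock-downs that sensitise breast cancer cells to camptothecin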 (primary screen)
Cell system: MDA-MB-231 cells, a human breast cancer line
Reagents: single siRNA against human genes, 20 nM siRNA (0.8 pmol per well)
Timing: 120 h (drug added 48 h after transfection, read 72 h later)
Conditions: camptothecin 20 nM (about EC30) for 72 h; vehicle 0.1% DMSO in parallel plates
Measurement: 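Cell viability by ATP luminescence (CellTiter-Glo) as % of non-targeting siRNA wells, and the log2 ratio of viability without drug over viability with camptothecin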
Direction: log2 vehicle/camptothecin viability: higher = stronger sensitisation to camptothecin; viability with camptothecin and viability without drug: higher = more viable cells
Rule for the call: 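Active genes have an RSA gene-level p-value below 0.001, computed from the ratios of their separate siRNAs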
The deposit covers about 26,000 reagents; shown is an unselected part. In the full data, 167 (0.63%) got an active call. 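Calls are per gene from RSA p-values that are not deposited; an individual active-marked siRNA can sensitise only weakly.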 Unmarked entries are inactive.

target,PubChem SID,log2 vehicle/camptothecin viability,viability with camptothecin (% of control),viability without drug (% of control)
KDM5D,SID164396695,-0.395,48.5,36.9
KDM5D,SID164396697,0.124,81,88.3
KDM5D,SID164396699,-0.027,49.3,48.4
KDM5D,SID164396700,-0.416,112,83.7
VRK2,SID164393904,-0.269,106,87.7
VRK2,SID164393905,-0.504,126,88.6
VRK2,SID164393906,0.372,74.7,96.7
VRK2,SID164393907,-0.0867,92.9,87.5
CATSPER3,SID164659860,-0.189,103,90
CATSPER3,SID164659861,-0.181,102,90
CATSPER3,SID164659862,-0.00172,101,101
STK11IP,SID164561701,-0.365,49.9,38.7
STK11IP,SID164561702,-0.12,118,109
STK11IP,SID164561706,0.0138,81.2,81.9
STK11IP,SID164561707,-0.0201,116,114
NR4A2,SID164378694,0.408,21.2,28.1
NR4A2,SID164378695,-0.51,50.8,35.7
NR4A2,SID164378696,-0.304,60.2,48.8
NR4A2,SID164478008,0.543,61.3,89.4
FCN1,SID164364528,-0.309,60.1,48.5
FCN1,SID164364529,-0.318,53.6,43
FCN1,SID164364530,-0.261,101,84.1
FCN1,SID164364531,0.0243,76.7,78.1
TAS1R2,SID164536904,0.103,15.5,16.7
TAS1R2,SID164536905,-0.133,38.3,34.9
TAS1R2,SID164536906,-0.0657,96.2,91.9
TAS1R2,SID164536907,-0.267,50.3,41.8
TWIST2,SID164565334,-0.105,98,91.1
TWIST2,SID164565335,0.372,73.8,95.5
TWIST2,SID164565336,-0.702,1.13,0.696
TWIST2,SID164565337,-0.473,98.9,71.2
LOC100131514 (retired record),SID174316007,-0.277,61.8,51
LOC100131514 (retired record),SID174316038,-0.165,103,91.9
SSTR4,SID164389953,-0.14,66.1,60
SSTR4,SID164389955,0.0485,50.5,52.3
SSTR4,SID164389956,-0.292,62.3,50.9
SSTR4,SID164389959,-0.0457,84.7,82
MSN,SID164376167,0.385,63.9,83.5
MSN,SID164376169,0.194,71.4,81.7
MSN,SID164376170,-0.707,79.5,48.7
MSN,SID164376172,0.495,54,76.1
SDHA,SID164387482,-0.294,73,59.5
SDHA,SID164387484,-0.174,64.4,57.1
SDHA,SID164387485,-0.163,58.9,52.6
SDHA,SID164387486,-0.112,84.8,78.4
EIF2AK1,SID164462435,-0.775,59.3,34.7
EIF2AK1,SID164462436,0.096,77.7,83.1
EIF2AK1,SID164462437,0.158,75.2,83.8
EIF2AK1,SID164462439,-0.106,71.5,66.4
TMPRSS15,SID164383094,-0.153,65.3,58.7
TMPRSS15,SID164383095,-0.124,62.6,57.5
TMPRSS15,SID164383098,-0.388,118,89.8
TMPRSS15,SID164383103,-0.193,62.2,54.4
PLCL2,SID164446546,0.71,46.9,76.8
PLCL2,SID164446549,-0.0384,93.8,91.4
PLCL2,SID164446550,-0.212,85.9,74.2
PLCL2,SID164446551,-0.0485,93,90
CSE1L,SID164359966,0.692,40.3,65.2
CSE1L,SID164359967,0.0406,109,112
CSE1L,SID164359968,-0.176,73.3,64.9
CSE1L,SID164359971,0.672,32.9,52.4
GABRA5,SID164365710,-0.0731,90,85.6
GABRA5,SID164365716,-0.21,124,107
GABRA5,SID164365717,-0.0946,79.9,74.8
GABRA5,SID164365718,-0.0362,96.5,94.1
KCNG4,SID164552341,-0.115,53.2,49.1
KCNG4,SID164552342,-0.113,106,98
KCNG4,SID164552343,-0.433,54.3,40.2
KCNG4,SID164552345,-0.929,77.8,40.9
SERPINE2,SID164380647,-0.0255,98.5,96.8
SERPINE2,SID164380649,-0.527,65.9,45.7
SERPINE2,SID164380650,0.516,67,95.7
SERPINE2,SID164380651,0.393,55.6,73
MYCBP2,SID164445460,-0.519,66.8,46.6
MYCBP2,SID164445461,0.104,80.8,86.8
MYCBP2,SID164445463,0.234,48.9,57.5
MYCBP2,SID164445464,-0.262,105,87.9
ADAM15,SID164399647,-0.346,128,100
ADAM15,SID164399648,-0.0832,103,97.2
ADAM15,SID164399649,-0.135,55.9,50.9
ADAM15,SID164399651,0.155,50.1,55.8
CLIC1,SID164358729,-0.241,81.6,69
CLIC1,SID164358731,0.012,91.4,92.2
CLIC1,SID164358732,0.0166,52.6,53.2
CLIC1,SID164358733,-0.221,22.7,19.5
ALDH7A1,SID164354642,-0.374,40.3,31.1
ALDH7A1,SID164354650,-0.393,67.3,51.2
ALDH7A1,SID164354652,-0.465,112,81.4
